Data: publication PMC4741190, “Crystal structure of the flavoenzyme PA4991 from Pseudomonas aeruginosa” (Acta Crystallographica. Section F, Structural Biology …, 2016)
These are yes or no findings as the source states them, for the method shown.

Key:
[1] = target: PA4991 from Pseudomonas aeruginosa (Pseudomonas aeruginosa PAO1) (UniProt Q9HUH4); assay: crystal structure; X-ray, 2.4 A, space group P21, one monomer in the asymmetric unit; crystal packing analysed with PISA; both purified
[2] = target: PA4991 from Pseudomonas aeruginosa (Pseudomonas aeruginosa PAO1) (UniProt Q9HUH4); assay: SEC; analytical size-exclusion chromatography, Superdex 200 10/300, 25 mM Tris-HCl pH 8.0, 150 mM NaCl; calibrated with protein standards; both purified

B1: PA4991 from Pseudomonas aeruginosa (enzyme, UniProt Q9HUH4 1-391)
chain: MPQALSTDILIVGGGIAGLWLNARLRRAGYATVLVESASLGGGQSVKSQGIIHGGAKYALHGALTGASEAIADMPRRWRACLGSDGELDLRGVRLLSEAHYLWSPGGLAGSLTSFFASKAVRSRVEQAKGEDLPPALRDKGFKGKAYRLTEIVFDVPDLIRRLAELAGDSLLAGERIEPLREGRELAGLCVDGREIRAQRVVLSAGAGNEALLRELGLEQPAMQRRPLHMVMVKAATLKPLYAHCLGAGPKPRITVTTHPTRDGQSVWYLGGDIAETDGVARDEAAQIAEARRELAKLLPWIDLGQAQWATLRVDRAEPAQSNLLRPDNAFLAEQGRLLVGWPTKLALAPDFADRVCARLEEDGIRPSEHAALPQLPRPPLAEPAWEVAFA
In the case of B1, the binding [1] is reported as “no binding” and the binding [2] is reported as “no binding”.
